The values below are quoted from earlier work in patent US20240239766A1, “3-AMINO PIPERIDYL SODIUM CHANNEL INHIBITORS” (Genentech, Inc., priority 2021, published 2024).

For this series the following is noted: administered topically (Lidoderm patch); cited from earlier work.

Turning to `CCN(CC)CC(=O)Nc1c(C)cccc1C` [lidocaine], the plasma concentrations entry is given as “about 1 μM”.
